These are yes or no findings as the source states them, for the method shown. Some entries that bind do so weakly or less than the wild type. Sequences can lack the tags named with a protein.
Assays:
[1] = molecular target: T1, pGBKT7-NBR1 (bait fusion) (UniProt Q14596); test: two-hybrid
T1 sequence: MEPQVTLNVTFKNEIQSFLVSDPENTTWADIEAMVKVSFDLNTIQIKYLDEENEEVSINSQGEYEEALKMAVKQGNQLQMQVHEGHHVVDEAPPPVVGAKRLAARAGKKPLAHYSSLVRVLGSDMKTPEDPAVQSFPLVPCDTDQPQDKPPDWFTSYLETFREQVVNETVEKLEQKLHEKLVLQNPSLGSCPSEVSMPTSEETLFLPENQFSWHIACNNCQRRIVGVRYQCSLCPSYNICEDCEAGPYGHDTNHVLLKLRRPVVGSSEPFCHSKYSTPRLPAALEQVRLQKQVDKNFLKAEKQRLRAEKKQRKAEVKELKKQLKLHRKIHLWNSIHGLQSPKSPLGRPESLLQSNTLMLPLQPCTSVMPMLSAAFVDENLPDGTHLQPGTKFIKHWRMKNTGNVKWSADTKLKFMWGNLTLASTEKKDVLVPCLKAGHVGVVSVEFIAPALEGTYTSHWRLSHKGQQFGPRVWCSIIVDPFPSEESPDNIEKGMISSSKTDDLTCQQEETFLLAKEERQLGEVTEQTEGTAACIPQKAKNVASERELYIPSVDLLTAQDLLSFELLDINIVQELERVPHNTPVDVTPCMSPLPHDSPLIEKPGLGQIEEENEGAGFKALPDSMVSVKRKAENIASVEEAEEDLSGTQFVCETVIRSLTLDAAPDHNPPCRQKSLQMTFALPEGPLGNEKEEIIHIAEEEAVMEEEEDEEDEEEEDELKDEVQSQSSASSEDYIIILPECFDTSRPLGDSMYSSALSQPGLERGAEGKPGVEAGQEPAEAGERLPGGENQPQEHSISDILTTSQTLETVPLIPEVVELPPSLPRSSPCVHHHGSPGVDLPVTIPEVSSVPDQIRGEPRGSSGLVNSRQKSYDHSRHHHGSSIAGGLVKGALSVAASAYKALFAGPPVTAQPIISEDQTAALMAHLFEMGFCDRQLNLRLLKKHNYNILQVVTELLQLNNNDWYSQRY

The chains behind the UniProt entries cited, without tags or fusion partners. Residues count along the entry.
UniProt Q9WJB2, 3808-3960: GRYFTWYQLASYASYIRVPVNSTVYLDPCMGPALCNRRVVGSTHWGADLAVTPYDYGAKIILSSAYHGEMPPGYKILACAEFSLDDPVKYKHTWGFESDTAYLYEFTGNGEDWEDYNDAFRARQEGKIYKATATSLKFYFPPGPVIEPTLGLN

[2] = molecular target: T2, pGBKT7-NDP52 (bait fusion) (UniProt Q13137); test: two-hybrid
T2 sequence: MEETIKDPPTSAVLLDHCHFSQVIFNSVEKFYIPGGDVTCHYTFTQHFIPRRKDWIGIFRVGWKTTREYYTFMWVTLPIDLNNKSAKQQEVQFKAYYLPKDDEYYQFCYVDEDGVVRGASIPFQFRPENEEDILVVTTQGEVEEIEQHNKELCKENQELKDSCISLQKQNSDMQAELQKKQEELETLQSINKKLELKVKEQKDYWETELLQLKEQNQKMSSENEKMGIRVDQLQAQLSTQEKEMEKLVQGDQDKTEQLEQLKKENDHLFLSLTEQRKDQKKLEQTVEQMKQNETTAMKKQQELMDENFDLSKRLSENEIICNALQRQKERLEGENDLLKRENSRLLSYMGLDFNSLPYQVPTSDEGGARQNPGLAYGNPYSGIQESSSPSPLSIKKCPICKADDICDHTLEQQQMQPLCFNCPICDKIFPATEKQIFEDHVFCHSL

pGADT7-nsp12 (PRRSV nsp12 prey fusion) (from UniProt Q9WJB2 3808-3960)
binding [1]: binds
binding [2]: binds

Reference: paper doi:10.1101/2025.09.02.673672
